These results are taken from PubChem BioAssay AID2685 (National Center for Advancing Translational Sciences (NCATS), 2010).

The experiment can be described thus: qHTS Assay for Lipid Storage Modulators in Drosophila S3 Cells.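 As to cell number change: cells counted by Cell Tracker Red CMTPX staining in the red channel.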 As to conditions: BODIPY lipid droplet fluorescence, 18-24 h; for cell number change: measured here: cell count max response, cells fed with added oleic acid. A digest of the protocol:
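Drosophila S3 cells got compounds at several concentrations plus oleic acid (400 uM solution). Laser-scanning cytometry with 488 nm excitation read lipid droplets at 500-530 nm and cells at 575-640 nm. Percent activity was relative to 20 uM Triacsin C.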

Setting [1] is: measured here: lipid fluorescence (Fed channel) AC50, cells fed with added oleic acid.
Where [2] appears, read: measured here: cell number channel AC50, cells fed with added oleic acid.

The other results are listed elsewhere or left out. These are further read-outs of the screen, such as a control signal, another cell line or another target. No call is given for them. Compounds called inactive in the main read-out are mostly missing here. Words in brackets tell the shape of the fitted curve; partial curves, single points and poor fits give uncertain potencies.

For `CN(C)S(=O)(=O)c1cccc(NC(=O)C2Cc3ccccc3CN2C(=O)c2ccccc2)c1` (configuration not stated), the cell number change was determined as 25.2%. The AC50 under setting [1] is 3.26 µM [falling, full curve, poor fit].
On to `C=CCNC(=O)/C(C#N)=C\c1cc(Cl)c(OCC)c(OC)c1`, for which the AC50 under setting [1] was 11.6 µM [falling, partial curve].
For the molecule `COC(=O)/C(=C\C(=O)c1ccc([N+](=O)[O-])cc1)Nc1ccc(OC)cc1`, the cell number change was -29.1%. Further, the AC50 under setting [1] is 29.1 µM [falling, single point].
As to `CCCn1nc(NC(=O)c2cccs2)c2cc3cc(C)ccc3nc21`, the cell number change turned out to be 22.6%.
With `Cc1sc2nc(CN3CCC(C)CC3)nc(Cl)c2c1C`, the cell number change is -43.5%. Also, the AC50 under setting [2] is 29.1 µM [falling, single point].
In the case of `O=c1[nH]c(/C=C/c2ccccc2Cl)c([N+](=O)[O-])c(=O)[nH]1`, the cell number change was 7.69%. Further, under setting [1], the AC50 is 18.4 µM [falling, single point].
Regarding `CC(c1ccccc1)C(CC(=O)O)C(=O)NC1CCCCC1` (configuration not stated), the AC50 under setting [1] was 0.259 µM [falling, single point].
As to `CC(C(=O)OCC(=O)Nc1ccc(S(=O)(=O)N2CCCCC2)cc1)N1C(=O)c2ccccc2C1=O` (configuration not stated), the cell number change was -29.6%. For the same molecule, the AC50 under setting [2] was 0.651 µM [falling, full curve, poor fit]. Under setting [1], the AC50 is 18.4 µM [falling, partial curve].
As for `COc1ccccc1NC(=O)c1ccccc1NC(=O)c1ccccn1`, the AC50 under setting [1] was 29.1 µM [rising, single point].
Consider `COc1ccc(C(=O)Nc2ccccc2C(=O)Nc2ccccc2C(=O)O)cc1`, for which the cell number change was -22.3%. Further, under setting [1], the AC50 was 3.26 µM [falling, full curve, poor fit].
As for `O=C(Nc1ccc(N2CCCCC2)cc1)C1CCCN1S(=O)(=O)c1ccc(F)cc1` (configuration not stated), the cell number change was -23.6%.
In the case of `O=C(Cc1sc(-c2ccccc2)nc1-c1ccccc1)Nc1ccc(Cl)cc1`, the cell number change is 105%. Besides, under setting [2], the AC50 is 23.1 µM [rising, single point]. Also, under setting [1], the AC50 was 29.1 µM [rising, single point].
Take `C/C(=N\OCC(=O)Nc1ccc(Br)cc1)c1cccs1`: the cell number change is -24.9%. Further, the AC50 under setting [2] is 0.651 µM [falling, full curve, poor fit].
As for `N#CCC(=O)N/N=C/c1cn(Cc2ccccc2C#N)c2ccccc12`, the cell number change is 30.9%. In addition, under setting [2], the AC50 was 0.517 µM [rising, full curve, poor fit].
For `COC(=O)c1cc(Br)c(=O)n(CCC2=CCCCC2)c1`, the cell number change is 6.04%. Also, the AC50 under setting [2] is 2.06 µM [falling, partial curve]. Also, the AC50 under setting [1] was 29.1 µM [rising, single point].
For the molecule `COc1ccccc1NC(=O)c1sc2nc(N3CCOCC3)c3c(c2c1N)CCCC3`, the cell number change was -14.6%. Besides, the AC50 under setting [1] was 29.1 µM [falling, single point].
`O=C(NC(=S)NNC(=O)c1cnccn1)c1ccc(Cl)cc1`: the cell number change was 39%. Besides, the AC50 under setting [2] is 14.6 µM [rising, partial curve, poor fit]. For the same molecule, the AC50 under setting [1] was 6.51 µM [falling, single point].
On to `Cc1c(NC(=O)c2cnc(Cl)c(Cl)c2)c(=O)n(-c2ccccc2)n1C`, for which the cell number change stood at 16.5%.
On to `CC(=O)c1ccc(S(=O)(=O)NCC2(N3CCOCC3)CCCCC2)cc1`, for which the cell number change stood at 20.9%. The AC50 under setting [1] is 20.6 µM [rising, single point].
Turning to `O=C1C(=O)c2ccc(-c3ccccc3)cc2-c2ccccc21`, the cell number change is -50.5%. Also, the AC50 under setting [2] is 2.31 µM [falling, full curve]. Further, the AC50 under setting [1] is 3.26 µM [falling, full curve].
Take `Cn1cncc1C#Cc1ccc2cc(C(C)(C)O)oc(=O)c2c1`: the cell number change is -35.3%. For the same molecule, the AC50 under setting [2] is 25.9 µM [falling, single point]. The AC50 under setting [1] is 18.4 µM [rising, single point].
Take `O=C1NC(c2ccccc2)CCO1` (configuration not stated): the cell number change is 12%. The AC50 under setting [1] was 29.1 µM [rising, single point].
Take `CCc1nnc(NC(=O)c2cc(Cl)ccn2)s1`: the cell number change is -1.39%.
As for `CC1(C(=O)N2CCN(c3ccccc3)CC2)CC1(Cl)Cl` (configuration not stated), the cell number change was -31.9%. The AC50 under setting [2] is 0.082 µM [falling, full curve, poor fit]. Also, the AC50 under setting [1] was 0.082 µM [falling, full curve, poor fit].
Turning to `O=C(CCc1c[nH]c2ccccc12)NC(Cc1c[nH]c2ccccc12)C(=O)O` (configuration not stated), the cell number change was found to be 21.6%. Further, under setting [1], the concentration at half-maximal activity (AC50) is 29.1 µM [rising, single point].
For `CCS(=O)(=O)c1ccc(S(=O)(=O)CC)s1`, the cell number change is -2.27%.
Still for that read-out and setting: under `CCNC(=O)COC(=O)c1cc(C)n(-c2ccccc2)c1C` stands 12.3%.
Turning to `O=C(CSc1n[nH]c(-c2ccccc2Cl)n1)NC1CCCCC1`, the cell number change was -20%. Further, the AC50 under setting [1] is 29.1 µM [falling, single point].
`CC(NC(=S)NC(=O)c1ccccc1Br)c1ccccc1` (configuration not stated): the cell number change was -19%. Besides, the AC50 under setting [1] was 6.51 µM [rising, single point].
Consider `Cc1nc2c(-c3ccc(F)cc3)c(C)nn2c(C)c1CCC(=O)NCCN1CCOCC1`, for which the cell number change was -38.9%. Moreover, under setting [2], the AC50 is 11.6 µM [falling, partial curve, poor fit]. For the same molecule, the AC50 under setting [1] was 0.731 µM [falling, full curve].
In the case of `O=C(O)c1ccc(OCCCCCCOC2CCCCO2)cc1` (configuration not stated), the cell number change stood at 21.9%. Under setting [1], the AC50 is 25.9 µM [rising, single point].
As to `COc1ccc(NC(=O)COC(=O)c2ccc(S(=O)(=O)N(C)c3ccccc3OC)cc2)c(OC)c1`, the cell number change was determined as 62.5%. The AC50 under setting [2] was 32.6 µM [rising, partial curve, poor fit]. In addition, the AC50 under setting [1] is 6.51 µM [rising, partial curve, poor fit].
On to `Cc1oc2c(CN3CCCCC3C)c(O)ccc2c(=O)c1-c1ccccc1` (configuration not stated), for which the cell number change is -6.94%.
Turning to `COCCn1c(SCC(=O)c2c(N)n(C3CC3)c(=O)[nH]c2=O)nnc1-c1cccc(C)c1`, the cell number change is -40.1%. For the same molecule, the AC50 under setting [2] is 18.4 µM [falling, single point]. Further, the AC50 under setting [1] was 20.6 µM [falling, single point].
As for `O=C(CNS(=O)(=O)c1cccc2nsnc12)NCc1ccc(Cl)cc1`, the cell number change worked out at 42.9%. Besides, under setting [2], the AC50 is 20.6 µM [rising, single point].
`C=CCSc1nnc2c(n1)OC=Nc1ccc(Br)cc1-2`: the cell number change is -10.9%. In addition, the AC50 under setting [1] is 16.4 µM [falling, partial curve, poor fit].
Turning to `CCOC(=O)C1CCN(C(=O)CCCNC(=O)Cn2cnc3sc(C)c(C)c3c2=O)CC1`, the cell number change stood at 17.1%. Under setting [1], the AC50 is 6.51 µM [rising, partial curve, poor fit].
Consider `CCOC(=O)CSc1nnc2n(C3CCCCC3)c(=O)c3c4c(sc3n12)CCCC4`, for which the cell number change was 2.17%.
Still for that read-out and setting: for `Cc1sc2c(c1C)c(=O)n(-c1cccc(C(F)(F)F)c1)c(=O)n2CC(=O)NCc1ccco1` the value was 17.1%.
Consider `CN(C)N1C(N)=C(C#N)C(c2ccccc2Cl)C2=C1CCCC2=O` (configuration not stated), for which the cell number change is -13.9%. The AC50 under setting [1] is 29.1 µM [falling, partial curve].
Take `O=C(NNC(=O)c1ccc2c(=O)n3c(nc2c1)CCC3)c1ccc(F)cc1`: the cell number change was determined as 47.6%. Further, the AC50 under setting [2] is 29.1 µM [rising, single point].
As to `C=CC[n+]1ccc(/C=C2\C=Cc3cc(C)ccc3N2CC)c2ccccc21`, the cell number change was -48.8%. Under setting [2], the AC50 is 0.92 µM [falling, full curve]. For the same molecule, under setting [1], the AC50 was 1.3 µM [falling, full curve].
Consider `COc1ccc(CNC2CCSc3ccccc32)cc1OC` (configuration not stated), for which the cell number change was determined as 7.21%.
For `CCOc1ccccc1NC(=O)CCc1nnc2ccc(N3CCC4(CC3)OCCO4)nn12`, the cell number change is 5.24%. Moreover, the AC50 under setting [2] was 5.8 µM [rising, single point]. In addition, the AC50 under setting [1] was 29.1 µM [falling, single point].
Consider `C=CCC(C#Cc1ccc(C)cc1)N(CC)CC` (configuration not stated), for which the AC50 by setting is: under setting [2], 7.31 µM [falling, partial curve, poor fit]; under setting [1], 5.17 µM [falling, partial curve].
Consider `N#CC(c1ccc(Cl)nn1)c1ccc(Cl)cc1Cl` (configuration not stated), for which the cell number change amounted to 4.13%.
Consider `COc1ccc(-n2ncc3c2CC(C)(C)CC3NC(=O)c2ocnc2C)cc1` (configuration not stated), for which the cell number change is -39.4%. Besides, under setting [2], the AC50 is 0.316 µM [falling, full curve]. Moreover, under setting [1], the AC50 is 35.5 µM [falling, single point].
For the molecule `COc1ccc(C(c2nnnn2Cc2ccccc2)N2CCN(c3nc4ccccc4s3)CC2)cc1` (configuration not stated), the cell number change amounted to 16.8%. Also, under setting [2], the AC50 was 0.366 µM [rising, full curve, poor fit]. Further, under setting [1], the AC50 is 0.517 µM [rising, full curve].
On to `O=C(Cn1ncn2c(cc3sccc32)c1=O)NC1CCCC1`, for which the cell number change is -21.8%. Under setting [1], the AC50 was 0.58 µM [falling, single point].
Take `CC(C)NS(=O)(=O)c1ccc(CCC(=O)O)cc1`: the cell number change is -10.3%. Besides, the AC50 under setting [1] is 6.51 µM [falling, single point].
For `COCCCNC(=O)CN(c1ccc(OC)cc1)S(=O)(=O)c1ccc(NC(C)=O)cc1`, the cell number change was -24.4%. Also, the AC50 under setting [2] was 0.00461 µM [falling, full curve, poor fit].
Consider `COc1ccc(N=Nc2ccc(O)c3ncccc23)cc1`, for which the cell number change is -17.4%. Moreover, the AC50 under setting [1] is 14.6 µM [falling, partial curve].
Regarding `COc1ccccc1CNC(=O)COC(=O)COc1ccccc1F`, the cell number change is 3.48%.
On to `CCN(C(=O)C(C)OC(=O)C1C(C(=O)OC)=C(C)NC(C)=C1C(=O)OC)c1ccccc1` (configuration not stated), for which the cell number change was -19.9%. Further, the half-maximal activity concentration (AC50) under setting [1] was 16.4 µM [falling, single point].
Regarding `CCOc1ccc(C(=O)/C=C/Nc2ccc(S(=O)(=O)Nc3cc(C)nc(C)n3)cc2)cc1`, the cell number change was found to be 5.13%.
On the same count and under the same terms, for `CC(C)(C)OC(=O)CNC(=O)c1nc[nH]c1C(=O)N1CCc2ccccc2C1` the value was 10.8%.
Take `CCCc1c(C(=O)N/N=C/c2cccs2)nnn1-c1nonc1N`: the cell number change was found to be 16.8%. The AC50 under setting [1] is 0.58 µM [rising, single point].
In the case of `COc1ccc(CNCCC(c2ccc(OC(C)C)cc2)c2ccccc2OC)cc1OC` (configuration not stated), the cell number change is -67.2%. In addition, the AC50 under setting [2] is 29.1 µM [falling, single point]. Moreover, the half-maximal activity concentration (AC50) under setting [1] was 29.1 µM [falling, single point].
Take `Cc1cc(C(=O)NCc2csc(-c3ccccc3)n2)no1`: the cell number change stood at 33.9%. In addition, the AC50 under setting [2] is 0.92 µM [rising, full curve, poor fit]. In addition, the AC50 under setting [1] was 29.1 µM [rising, single point].
